# Assay results published in the supplement of paper PMC8728848.
# Some of the results follow.
# Experiments:
# Experiment in all cases: glycan array binding signal (z-score within array); higher = stronger binding
# Conditions in all cases: glycan notation: IUPAC condensed, linker removed
# [1] = molecular target: Gal(b1-3)GlcNAc(a1-6)Gal(b1-4)GlcNAc
# Procedure, shortened: (§1)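 The binding signal is a Z-score computed within each array and averaged over linkers. Arrays of the same protein sequence at different concentrations or buffers were also averaged together. Data originate from 3228 arrays in the Consortium for Functional Glycomics database, kept only where the protein sequence was available.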
# [2] = molecular target: Gal(b1-3)GlcNAc(b1-2)Man(a1-3)[Gal(b1-3)GlcNAc(b1-2)Man(a1-6)]Man(b1-4)GlcNAc(b1-4)GlcNAc
# Procedure, shortened: as §1
# [3] = molecular target: Gal(b1-3)GlcNAc(b1-2)Man(a1-3)[Gal(b1-3)GlcNAc(b1-2)Man(a1-6)]Man(b1-4)GlcNAc(b1-4)[Fuc(a1-6)]GlcNAc
# Procedure, shortened: as §1
# [4] = molecular target: Gal(b1-3)GlcNAc(b1-2)[Gal(b1-3)GlcNAc(b1-6)]Man(a1-6)[Gal(b1-3)GlcNAc(b1-2)Man(a1-3)]Man(b1-4)GlcNAc(b1-4)GlcNAc
# Procedure, shortened: as §1
# [5] = molecular target: Gal(b1-3)GlcNAc(b1-3)Gal(b1-3)GlcNAc
# Procedure, shortened: as §1
# [6] = molecular target: Gal(b1-3)GlcNAc(b1-3)Gal(b1-4)Glc
# Procedure, shortened: as §1
# [7] = molecular target: Gal(b1-3)GlcNAc(b1-3)Gal(b1-4)GlcNAc
# Procedure, shortened: as §1
# [8] = molecular target: Gal(b1-3)GlcNAc(b1-3)Gal(b1-4)GlcNAc(b1-6)[Gal(b1-3)GlcNAc(b1-3)]Gal(b1-4)Glc
# Procedure, shortened: as §1
# [9] = molecular target: Gal(b1-3)GlcNAc(b1-3)Gal(b1-4)[Fuc(a1-3)]GlcNAc(b1-6)[Gal(b1-3)GlcNAc(b1-3)]Gal(b1-4)Glc
# Procedure, shortened: as §1
# [10] = molecular target: Gal(b1-3)GlcNAc(b1-3)GalNAc
# Procedure, shortened: as §1
# [11] = molecular target: Gal(b1-3)GlcNAc(b1-6)Gal(b1-4)GlcNAc
# Procedure, shortened: as §1
# [12] = molecular target: Gal(b1-3)[Fuc(a1-4)]GlcNAc
# Procedure, shortened: as §1
# [13] = molecular target: Gal(b1-3)[Fuc(a1-4)]GlcNAc(b1-2)Man(a1-3)[Gal(b1-3)[Fuc(a1-4)]GlcNAc(b1-2)Man(a1-6)]Man(b1-4)GlcNAc(b1-4)GlcNAc
# Procedure, shortened: as §1
# [14] = molecular target: Gal(b1-3)[Fuc(a1-4)]GlcNAc(b1-2)Man(a1-3)[Gal(b1-3)[Fuc(a1-4)]GlcNAc(b1-2)Man(a1-6)]Man(b1-4)GlcNAc(b1-4)[Fuc(a1-6)]GlcNAc
# Procedure, shortened: as §1
# [15] = molecular target: Gal(b1-3)[Fuc(a1-4)]GlcNAc(b1-3)Gal(b1-3)[Fuc(a1-4)]GlcNAc
# Procedure, shortened: as §1
# [16] = molecular target: Gal(b1-3)[Fuc(a1-4)]GlcNAc(b1-3)Gal(b1-4)GlcNAc
# Procedure, shortened: as §1
# [17] = molecular target: Gal(b1-3)[Fuc(a1-4)]GlcNAc(b1-3)Gal(b1-4)[Fuc(a1-3)]GlcNAc
# Procedure, shortened: as §1
# [18] = molecular target: Gal(b1-3)[GlcNAc(b1-6)]GalNAc
# Procedure, shortened: as §1
# [19] = molecular target: Gal(b1-3)[Neu5Ac(a2-6)]GalNAc
# Procedure, shortened: as §1
# [20] = molecular target: Gal(b1-3)[Neu5Ac(a2-6)]GlcNAc(b1-6)Gal(b1-4)Glc
# Procedure, shortened: as §1
# [21] = molecular target: Gal(b1-3)[Neu5Ac(b2-6)]GalNAc
# Procedure, shortened: as §1
# Gal(b1-4)Gal = molecular target: Gal(b1-4)Gal
# Procedure, shortened: as §1
# [22] = molecular target: Gal(b1-4)GalNAc(a1-3)[Fuc(a1-2)]Gal(b1-4)GlcNAc
# Procedure, shortened: as §1
# [23] = molecular target: Gal(b1-4)GalNAc(b1-3)[Fuc(a1-2)]Gal(b1-4)GlcNAc
# Procedure, shortened: as §1
# Gal(b1-4)Glc = molecular target: Gal(b1-4)Glc
# Procedure, shortened: as §1
# Gal(b1-4)Glc6S = molecular target: Gal(b1-4)Glc6S
# Procedure, shortened: as §1
# Gal(b1-4)GlcNAc = molecular target: Gal(b1-4)GlcNAc
# Procedure, shortened: as §1
# [24] = molecular target: Gal(b1-4)GlcNAc(a1-6)Gal(b1-4)GlcNAc
# Procedure, shortened: as §1
# Gal(b1-4)GlcNAc(b1-2)Man = molecular target: Gal(b1-4)GlcNAc(b1-2)Man
# Procedure, shortened: as §1
# [25] = molecular target: Gal(b1-4)GlcNAc(b1-2)Man(a1-3)Man(b1-4)GlcNAc(b1-4)GlcNAc
# Procedure, shortened: as §1
# [26] = molecular target: Gal(b1-4)GlcNAc(b1-2)Man(a1-3)[Gal(b1-4)GlcNAc(b1-2)Man(a1-6)]Man(b1-4)GlcNAc(b1-4)GlcNAc
# Procedure, shortened: as §1
# [27] = molecular target: Gal(b1-4)GlcNAc(b1-2)Man(a1-3)[Gal(b1-4)GlcNAc(b1-2)Man(a1-6)]Man(b1-4)GlcNAc(b1-4)[Fuc(a1-6)]GlcNAc
# Procedure, shortened: as §1
# [28] = molecular target: Gal(b1-4)GlcNAc(b1-2)Man(a1-3)[Gal(b1-4)GlcNAc(b1-2)][GlcNAc(b1-4)]Man(b1-4)GlcNAc(b1-4)GlcNAc
# Procedure, shortened: as §1
# [29] = molecular target: Gal(b1-4)GlcNAc(b1-2)Man(a1-3)[GlcNAc(b1-2)Man(a1-6)]Man(b1-4)GlcNAc(b1-4)GlcNAc
# Procedure, shortened: as §1
# [30] = molecular target: Gal(b1-4)GlcNAc(b1-2)Man(a1-3)[Man(a1-6)]Man(b1-4)GlcNAc(b1-4)GlcNAc
# Procedure, shortened: as §1
# [31] = molecular target: Gal(b1-4)GlcNAc(b1-2)Man(a1-6)Man(b1-4)GlcNAc(b1-4)GlcNAc
# Procedure, shortened: as §1
# [32] = molecular target: Gal(b1-4)GlcNAc(b1-2)Man(a1-6)[GlcNAc(b1-2)Man(a1-3)]Man(b1-4)GlcNAc(b1-4)GlcNAc
# Procedure, shortened: as §1
# [33] = molecular target: Gal(b1-4)GlcNAc(b1-2)Man(a1-6)[Man(a1-3)]Man(b1-4)GlcNAc(b1-4)GlcNAc
# Procedure, shortened: as §1
# [34] = molecular target: Gal(b1-4)GlcNAc(b1-2)[Gal(b1-4)GlcNAc(b1-4)]Man(a1-3)[Gal(b1-4)GlcNAc(b1-2)Man(a1-6)]Man(b1-4)GlcNAc(b1-4)GlcNAc
# Procedure, shortened: as §1
# [35] = molecular target: Gal(b1-4)GlcNAc(b1-2)[Gal(b1-4)GlcNAc(b1-4)]Man(a1-3)[Gal(b1-4)GlcNAc(b1-2)[Gal(b1-4)GlcNAc(b1-6)]Man(a1-6)]Man(b1-4)GlcNAc(b1-4)GlcNAc
# Procedure, shortened: as §1
# [36] = molecular target: Gal(b1-4)GlcNAc(b1-2)[Gal(b1-4)GlcNAc(b1-4)]Man(a1-3)[GlcNAc(b1-4)][Gal(b1-4)GlcNAc(b1-2)Man(a1-6)]Man(b1-4)GlcNAc(b1-4)GlcNAc
# Procedure, shortened: as §1
# [37] = molecular target: Gal(b1-4)GlcNAc(b1-2)[Gal(b1-4)GlcNAc(b1-4)]Man(a1-3)[GlcNAc(b1-4)][Gal(b1-4)GlcNAc(b1-2)[Gal(b1-4)GlcNAc(b1-6)]Man(a1-6)]Man(b1-4)GlcNAc(b1-4)GlcNAc
# Procedure, shortened: as §1
# [38] = molecular target: Gal(b1-4)GlcNAc(b1-2)[Gal(b1-4)GlcNAc(b1-6)]Man(a1-6)[Gal(b1-4)GlcNAc(b1-2)Man(a1-3)]Man(b1-4)GlcNAc(b1-4)GlcNAc
# Procedure, shortened: as §1
# [39] = molecular target: Gal(b1-4)GlcNAc(b1-2)[Gal(b1-4)GlcNAc(b1-6)]Man(a1-6)[GlcNAc(b1-4)][Gal(b1-4)GlcNAc(b1-2)Man(a1-3)]Man(b1-4)GlcNAc(b1-4)GlcNAc
# Procedure, shortened: as §1
# [40] = molecular target: Gal(b1-4)GlcNAc(b1-3)Gal(b1-3)GlcNAc
# Procedure, shortened: as §1
binder,measurement,setting,value
"Eosinophil-derived neurotoxin (EDN) (Homo sapiens), P10153 (protein) MVPKLFTSQICLLLLLGLLAVEGSLHVKPPQFTWAQWFETQHINMTSQQCTNAMQVINNYQRRCKNQNTFLLTTFANVVNVCGNPNMTCPSNKTRKNCHHSGSQVPLIHCNLTTPSPQNISNCRYAQTPANMFYIVACDNRDQRRDPPQYPVVPVHLDRII",glycan array binding signal (z-score),[1],0.141
same,glycan array binding signal (z-score),[2],-0.33
same,glycan array binding signal (z-score),[3],0.987
same,glycan array binding signal (z-score),[4],0.926
same,glycan array binding signal (z-score),[5],-0.011
same,glycan array binding signal (z-score),[6],-0.936
same,glycan array binding signal (z-score),[7],0.648
same,glycan array binding signal (z-score),[8],0.317
same,glycan array binding signal (z-score),[9],0.9
same,glycan array binding signal (z-score),[10],-0.212
same,glycan array binding signal (z-score),[11],-0.399
same,glycan array binding signal (z-score),[12],-0.366
same,glycan array binding signal (z-score),[13],-0.309
same,glycan array binding signal (z-score),[14],0.633
same,glycan array binding signal (z-score),[15],0.689
same,glycan array binding signal (z-score),[16],0.334
same,glycan array binding signal (z-score),[17],1.03
same,glycan array binding signal (z-score),[18],-0.071
same,glycan array binding signal (z-score),[19],-0.132
same,glycan array binding signal (z-score),[20],-0.73
same,glycan array binding signal (z-score),[21],0.311
same,glycan array binding signal (z-score),Gal(b1-4)Gal,-0.926
same,glycan array binding signal (z-score),[22],0.031
same,glycan array binding signal (z-score),[23],-0.207
same,glycan array binding signal (z-score),Gal(b1-4)Glc,-0.062
same,glycan array binding signal (z-score),Gal(b1-4)Glc6S,-0.305
same,glycan array binding signal (z-score),Gal(b1-4)GlcNAc,0.494
same,glycan array binding signal (z-score),[24],0.378
same,glycan array binding signal (z-score),Gal(b1-4)GlcNAc(b1-2)Man,0.468
same,glycan array binding signal (z-score),[25],-0.452
same,glycan array binding signal (z-score),[26],-0.089
same,glycan array binding signal (z-score),[27],1.36
same,glycan array binding signal (z-score),[28],-0.119
same,glycan array binding signal (z-score),[29],0.268
same,glycan array binding signal (z-score),[30],0.109
same,glycan array binding signal (z-score),[31],0.225
same,glycan array binding signal (z-score),[32],-0.253
same,glycan array binding signal (z-score),[33],-0.853
same,glycan array binding signal (z-score),[34],-0.461
same,glycan array binding signal (z-score),[35],-0.48
same,glycan array binding signal (z-score),[36],-0.676
same,glycan array binding signal (z-score),[37],0.239
same,glycan array binding signal (z-score),[38],-1.1
same,glycan array binding signal (z-score),[39],-0.279
same,glycan array binding signal (z-score),[40],-0.443

# A different layout for part of the listing above.
binder | measurement | setting | value
Eosinophil-derived neurotoxin (EDN) (Homo sapiens), P10153 (protein) MVPKLFTSQICLLLLLGLLAVEGSLHVKPPQFTWAQWFETQHINMTSQQCTNAMQVINNYQRRCKNQNTFLLTTFANVVNVCGNPNMTCPSNKTRKNCHHSGSQVPLIHCNLTTPSPQNISNCRYAQTPANMFYIVACDNRDQRRDPPQYPVVPVHLDRII | glycan array binding signal (z-score) | [6] | -0.936
same | glycan array binding signal (z-score) | [7] | 0.648
